Source: article PMC8012910
These are yes or no findings as the source states them, for the method shown. Binding seen in cells or lysates may run through a third protein. A yes stands for co-enrichment or nearness to the bait. Other partners may have been found.

By UniProt entry, the sequences of proteins in these tests, tags left out.
UniProt O35718: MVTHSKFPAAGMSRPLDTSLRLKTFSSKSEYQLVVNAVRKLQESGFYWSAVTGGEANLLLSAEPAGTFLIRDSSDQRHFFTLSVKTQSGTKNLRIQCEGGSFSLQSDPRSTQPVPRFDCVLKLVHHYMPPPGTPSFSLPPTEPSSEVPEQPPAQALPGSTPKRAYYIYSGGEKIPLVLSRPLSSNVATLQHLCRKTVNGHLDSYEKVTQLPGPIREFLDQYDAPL

Molecular target: SOCS3-Myc (suppressor of cytokine signaling 3, Myc-tagged) (UniProt O35718)
Assay: affinity purification with mass spectrometry; anti-Myc (9E10) IP with Protein-G agarose from lysates of SOCS3-Myc transfected OP9-DL1 cells (120 mM NaCl, 50 mM Tris pH 8.0, 0.5% NP-40), isotype antibody as control; on-bead trypsin digestion, LC-MS/MS; three replicates

B1: E3 ubiquitin ligase TRIM21 (protein, UniProt Q62191 1-470)
chain: MSPSTTSKMSLEKMWEEVTCSICLDPMVEPMSIECGHCFCKECIFEVGKNGGSSCPECRQQFLLRNLRPNRHIANMVENLKQIAQNTKKSTQETHCMKHGEKLHLFCEEDGQALCWVCAQSGKHRDHTRVPIEEAAKVYQEKIHVVLEKLRKGKELAEKMEMDLTMQRTDWKRNIDTQKSRIHAEFALQNSLLAQEEQRQLQRLEKDQREYLRLLGKKEAELAEKNQALQELISELERRIRGSELELLQEVRIILERSGSWNLDTLDIDAPDLTSTCPVPGRKKMLRTCWVHITLDRNTANSWLIISKDRRQVRMGDTHQNVSDNKERFSNYPMVLGAQRFSSGKMYWEVDVTQKEAWDLGVCRDSVQRKGQFSLSPENGFWTIWLWQDSYEAGTSPQTTLHIQVPPCQIGIFVDYEAGVVSFYNITDHGSLIYTFSECVFAGPLRPFFNVGFNYSGGNAAPLKLCPLKM
In the case of B1, the binding is reported as “binds”.
